# Measurements from article PMC11530130, “Peripherally restricted PICK1 inhibitor mPD5 ameliorates pain behaviors in murine inflammatory and neuropathic pain models” (JCI Insight, 2024).
# Values joined by “and” are separate entries in the source; they are usually repeats but may differ in a detail not shown here. Equal entries are not always repeated. The source gives many values for each of these; only a part stands here.
# How the values were obtained:
# Type in all cases: in vivo, mouse
# [1] = test system: naive mice; experiment: Open field locomotion; details: individual animals, listed as myr
# Experimental: Concentration 10 µmol/kg: Wild type mice were habituated to the experimental room for a minimum of 60 min before initiation of the experiment. Female and male mice were run on separate days. Mice were injected s.c. with 10 μmol/kg mPD5 or sterile PBS directly before being placed in open field boxes (40 cm x 40 cm x 80 cm) for 2.5 hours with up to four mice in boxes at any one time. A video camera placed above the open field recorded the animals’ behaviour and Ethovision XT 13 (Noldus) was used to track the distance travelled by the […]
# Concentration 30 + 50 µmol/kg: Animals were habituated to the experimental room for a minimum of 60 min before initiation of the experiment. At initiation of experiment, the mice (all male) were injected subcutaneously (s.c.) with mPD5 (30 or 50 μmol/kg, pH adjusted to approximately 7 with 5 M NaOH) or 0.9 % saline (B.Braun, Germany) and left in their home cage for 60 min. After exactly one hour, the mice were placed in an open field (40 cm x 40 cm x 80 cm) for 60 min. A video camera placed above the open field recorded the animals’ […]
# animal. The experiment was run in cohort with Figure 2B+C of (9)). […]
# [2] = test system: naive mice; experiment: Barnes maze (spatial learning and memory, reversal learning); details: individual animals;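 note: Nose pokes per hole during a probe trial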
# Experimental: Spatial learning and memory.
# On each day, animals were moved from the housing facility to the experimental room and allowed to acclimatize for at least 60 min before initiation of the experiment. All drugs used (PBS or 10 μmol/kg mPD5) were injected s.c. in a 10 μl/g body weight volume 60 min before first placement on the Barnes’ maze on day 1-9 of the experiment. The experiment was divided into Barnes maze habituation, spatial acquisition (training) and probe trials. During habituation to the Barnes maze itself, animals were placed under a cylinder in the middle of the Barnes maze for 10 seconds and then gently guided to the escape box and left there for two min. During spatial acquisition (training), each mouse was placed under a cylinder in the middle of the Barnes maze for 10 sec followed by up to three min of free exploration of the Barnes maze.
# Once the animal entered the escape cage, it was left there for one min before being transferred back to its home cage for 15-20 min. This training was performed four times per day per mouse.
# During probe trials the reference memory of the animal was tested by placing each mouse under a cylinder in the middle of the Barnes maze for 10 sec followed by 90 sec of free exploration of the Barnes maze with no escape cage. On days 6-8, the escape hole was moved 90 degrees, and all mice went through the second bout of training. On day nine, a second probe trial was performed testing the reversal learning of the mice. […]
# Single exposure place preference. […]
# [3] = test system: mice, spared nerve injury (SNI) model; experiment: SNI model 18 weeks after surgery, von Frey, sustained s.c. administration; parameters: von Frey threshold, Fig 7C, individual mice: unit not given here
# Experimental: Repeated and sustained administration of mPD5 in the SNI model. […]
# For the first experiment with sustained administration of mPD5 (Figure 7C), the mice underwent a baseline von Frey reading as described in the “Mechanically-evoked pain (von Frey).”-section and SNI surgery as described in “Induction of neuropathic pain (SNI model).”-section. Approximately 18 weeks (125 days) after SNI surgery, hyperalgesia was confirmed with von Frey. On the same day, mice were injected s.c. with 10 μmol/kg mPD5 and evoked pain was tested again at 1 hour after injection. Then, mice were injected s.c. with either 2+2+2 μmol/kg mPD5 (group A) or PBS (group B) once an hour for 3 hours. At 4,5 hours after the 10 μmol/kg mPD5 injection paw withdrawal threshold was measured again followed by a s.c. injection of 2 μmol/kg mPD5 in all animals. The PWT was measured again at 6 hours +7 hours + 8 hours + 9 hours + 10 hours + 11 hours + 22 hours + 23 hours + 25 hours + 27 hours + 49 hours + 121 hours after the initial 10 μmol/kg mPD5 injection performed on day 125. […]
smiles,measurement,setting,value
"CCCCCCCCCCCCCC(=O)N(CCOCCOCCC(=O)N[C@@H](Cc1c[nH]cn1)C(=O)N[C@@H](Cc1c[nH]c2ccccc12)C(=O)N[C@@H](CC(C)C)C(=O)N[C@@H](CCCCN)C(=O)N[C@H](C(=O)O)C(C)C)CCOCCOCCC(=O)N[C@@H](Cc1c[nH]cn1)C(=O)N[C@@H](Cc1c[nH]c2ccccc12)C(=O)N[C@@H](CC(C)C)C(=O)N[C@@H](CCCCN)C(=O)N[C@H](C(=O)O)C(C)C [mPD5, myristoyl-NPEG4-(HWLKV)2]",open field locomotion per 5min bin (Fig S8A),"[1]; myr 30 sc, time bin 10",24.6381 and 12.5649
same,open field locomotion per 5min bin (Fig S8A),"[1]; myr 30 sc, time bin 15",6.319 and 13.9565 and 0.7545 and 19.9932 and 23.1332 and 8.855
same,open field locomotion per 5min bin (Fig S8A),"[1]; myr 30 sc, time bin 20",2.436 and 11.2802 and 0.2573 and 13.8011 and 21.7437 and 5.87
same,open field locomotion per 5min bin (Fig S8A),"[1]; myr 30 sc, time bin 25",0.7647 and 5.632 and 4.615 and 19.5906 and 21.1128 and 10.559
same,open field locomotion per 5min bin (Fig S8A),"[1]; myr 30 sc, time bin 30",0.758 and 10.4492 and 0.5588 and 17.1349 and 21.8311 and 6.638
same,open field locomotion per 5min bin (Fig S8A),"[1]; myr 50 sc, time bin 10",11.621 and 9.116
same,open field locomotion per 5min bin (Fig S8A),"[1]; myr 50 sc, time bin 15",9.351 and 8.889 and 2.673 and 11.9894 and 6.662 and 12.2507 and 11.1024
same,open field locomotion per 5min bin (Fig S8A),"[1]; myr 50 sc, time bin 20",7.309 and 7.613 and 0.7207 and 9.662 and 8.576 and 11.1677 and 7.267
same,open field locomotion per 5min bin (Fig S8A),"[1]; myr 50 sc, time bin 25",1.61 and 6.95 and 1.94 and 7.566 and 10.4592 and 12.1498 and 10.0093
same,open field locomotion per 5min bin (Fig S8A),"[1]; myr 50 sc, time bin 30",9.273 and 7.539 and 1.11 and 7.985 and 2.094 and 7.883 and 4.781
same,"Barnes maze, count per hole (Fig S8D)",[2]; hole position 5,0 (4×) and 2 (2×) and 1 (3×)
same,"Barnes maze, count per hole (Fig S8E)",[2]; hole position 5,0 (2×) and 3 and 1 (5×) and 2
same,"Barnes maze, count per hole (Fig S8D)",[2]; hole position 6,0 (4×) and 2 and 1 (4×)
same,"Barnes maze, count per hole (Fig S8E)",[2]; hole position 6,0 (3×) and 1 (4×) and 2 and 3
same,"Barnes maze, count per hole (Fig S8D)",[2]; hole position 7,0 (4×) and 2 (2×) and 1 (3×)
same,"Barnes maze, count per hole (Fig S8E)",[2]; hole position 7,1 (2×) and 2 (7×)
same,"Barnes maze, count per hole (Fig S8D)",[2]; hole position 8,0 (3×) and 1 (6×)
same,"Barnes maze, count per hole (Fig S8E)",[2]; hole position 8,1 (5×) and 2 (3×) and 3
same,"Barnes maze, count per hole (Fig S8D)",[2]; hole position 9,0 (3×) and 2 and 1 (5×)
same,"Barnes maze, count per hole (Fig S8E)",[2]; hole position 9,1 (3×) and 2 (4×) and 0 and 3
same,"Barnes maze, count per hole (Fig S8D)",[2]; hole position -7,1 (3×) and 2
same,"Barnes maze, count per hole (Fig S8E)",[2]; hole position -7,1 (2×) and 2 (3×) and 3
same,"Barnes maze, count per hole (Fig S8D)",[2]; hole position -8,0 (5×) and 1 (3×) and 2
same,"Barnes maze, count per hole (Fig S8E)",[2]; hole position -8,0 (2×) and 1 (3×) and 2 (3×) and 3
same,"Barnes maze, count per hole (Fig S8D)",[2]; hole position -9,0 (5×) and 1 (3×) and 3
same,"Barnes maze, count per hole (Fig S8E)",[2]; hole position -9,1 (4×) and 0 and 2 (3×) and 3
same,"Barnes maze, count per hole (Fig S8D)",[2]; hole position opposite,0 (4×) and 1 (5×)
same,"Barnes maze, count per hole (Fig S8E)",[2]; hole position opposite,1 (4×) and 0 and 2 (3×) and 3
same,"von Frey threshold, contralateral paw, Fig 7C, individual mice","[3]; A-contra, time 1 post inj 1",1.4 (3×) and 1 (5×)
same,"von Frey threshold, contralateral paw, Fig 7C, individual mice","[3]; A-contra, time 4,5 post inj 1",1.4 (5×) and 1 (3×)
same,"von Frey threshold, contralateral paw, Fig 7C, individual mice","[3]; A-contra, time 6 post første inj og time 1 post sidste inj",1.4 (5×) and 1 (3×)
same,"von Frey threshold, contralateral paw, Fig 7C, individual mice","[3]; A-contra, time 7 post første inj og time 2 post sidste inj",2 (2×) and 1.4 (3×) and 1 (3×)
same,"von Frey threshold, contralateral paw, Fig 7C, individual mice","[3]; A-contra, time 8 post første inj og time 3 post sidste inj",1.4 (4×) and 1 (4×)
same,"von Frey threshold, contralateral paw, Fig 7C, individual mice","[3]; A-contra, time 49 post første inj og time 44 post sidste inj",1.4 (6×) and 1 (2×)
same,"von Frey threshold, contralateral paw, Fig 7C, individual mice","[3]; A-contra, time 121 post første inj og time 116 post sidste inj",1.4 (4×) and 1 (3×) and 2
same,"von Frey threshold, contralateral paw, Fig 7C, individual mice","[3]; B-contra, time 1 post inj 1",1.4 (6×) and 0.6 and 2
same,"von Frey threshold, contralateral paw, Fig 7C, individual mice","[3]; B-contra, time 4,5 post inj 1",1.4 (4×) and 1 (2×) and 2 (2×)
same,"von Frey threshold, contralateral paw, Fig 7C, individual mice","[3]; B-contra, time 6 post første inj og time 1 post sidste inj",1.4 (4×) and 2 (4×)
same,"von Frey threshold, contralateral paw, Fig 7C, individual mice","[3]; B-contra, time 7 post første inj og time 2 post sidste inj",1 (2×) and 1.4 (3×) and 2 (3×)
same,"von Frey threshold, contralateral paw, Fig 7C, individual mice","[3]; B-contra, time 8 post første inj og time 3 post sidste inj",1.4 (5×) and 2 (2×) and 1
same,"von Frey threshold, contralateral paw, Fig 7C, individual mice","[3]; B-contra, time 27 post første inj og time 22 post sidste inj",1 (2×) and 1.4 (4×) and 2 (2×)
same,"von Frey threshold, contralateral paw, Fig 7C, individual mice","[3]; B-contra, time 49 post første inj og time 44 post sidste inj",1.4 (4×) and 2 (2×) and 1 (2×)
same,"von Frey threshold, contralateral paw, Fig 7C, individual mice","[3]; B-contra, time 121 post første inj og time 116 post sidste inj",1.4 (3×) and 2 (3×) and 1 (2×)
same,"von Frey threshold, Fig 7C, individual mice","[3]; group A, time 1 post inj 1",1 and 1.4 and 0.4 and 0.6 (4×) and 2
same,"von Frey threshold, Fig 7C, individual mice","[3]; group A, time 4,5 post inj 1",0.6 (3×) and 1.4 and 0.4 and 1 (2×) and 2
same,"von Frey threshold, Fig 7C, individual mice","[3]; group A, time 6 post første inj og time 1 post sidste inj",2 and 1.4 and 1 (6×)
same,"von Frey threshold, Fig 7C, individual mice","[3]; group A, time 7 post første inj og time 2 post sidste inj",1.4 (4×) and 1 (2×) and 0.6 (2×)
same,"von Frey threshold, Fig 7C, individual mice","[3]; group A, time 8 post første inj og time 3 post sidste inj",1 (4×) and 1.4 (2×) and 0.6 (2×)
same,"von Frey threshold, Fig 7C, individual mice","[3]; group A, time 27 post første inj og time 22 post sidste inj",1.4 and 0.16 (2×) and 1
same,"von Frey threshold, Fig 7C, individual mice","[3]; group A, time 49 post første inj og time 44 post sidste inj",0.4 (4×) and 1.4 and 0.07 and 0.16 and 1
same,"von Frey threshold, Fig 7C, individual mice","[3]; group A, time 121 post første inj og time 116 post sidste inj",0.16 (2×) and 0.4 (4×) and 0.07 (2×)
same,"von Frey threshold, Fig 7C, individual mice","[3]; group B, time 1 post inj 1",2 and 1.4 (2×) and 0.6 and 0.16 and 1 (2×) and 0.4
same,"von Frey threshold, Fig 7C, individual mice","[3]; group B, time 4,5 post inj 1",1.4 (2×) and 0.6 and 0.16 (3×) and 0.4 and 0.07
same,"von Frey threshold, Fig 7C, individual mice","[3]; group B, time 6 post første inj og time 1 post sidste inj",1.4 (2×) and 0.16 (4×) and 1 and 0.4
same,"von Frey threshold, Fig 7C, individual mice","[3]; group B, time 7 post første inj og time 2 post sidste inj",1.4 (2×) and 0.6 and 0.07 (4×) and 1
same,"von Frey threshold, Fig 7C, individual mice","[3]; group B, time 8 post første inj og time 3 post sidste inj",2 and 0.4 (2×) and 0.07 (4×) and 0.16
same,"von Frey threshold, Fig 7C, individual mice","[3]; group B, time 49 post første inj og time 44 post sidste inj",0.16 (6×) and 0.07 and 0.04
same,"von Frey threshold, Fig 7C, individual mice","[3]; group B, time 121 post første inj og time 116 post sidste inj",0.4 and 0.16 (5×) and 0.07 (2×)
